Drawing on publication PMC6449397, this text covers binding for five molecules.

By UniProt entry, the sequences of proteins in these tests, tags left out.
UniProt Q567U6: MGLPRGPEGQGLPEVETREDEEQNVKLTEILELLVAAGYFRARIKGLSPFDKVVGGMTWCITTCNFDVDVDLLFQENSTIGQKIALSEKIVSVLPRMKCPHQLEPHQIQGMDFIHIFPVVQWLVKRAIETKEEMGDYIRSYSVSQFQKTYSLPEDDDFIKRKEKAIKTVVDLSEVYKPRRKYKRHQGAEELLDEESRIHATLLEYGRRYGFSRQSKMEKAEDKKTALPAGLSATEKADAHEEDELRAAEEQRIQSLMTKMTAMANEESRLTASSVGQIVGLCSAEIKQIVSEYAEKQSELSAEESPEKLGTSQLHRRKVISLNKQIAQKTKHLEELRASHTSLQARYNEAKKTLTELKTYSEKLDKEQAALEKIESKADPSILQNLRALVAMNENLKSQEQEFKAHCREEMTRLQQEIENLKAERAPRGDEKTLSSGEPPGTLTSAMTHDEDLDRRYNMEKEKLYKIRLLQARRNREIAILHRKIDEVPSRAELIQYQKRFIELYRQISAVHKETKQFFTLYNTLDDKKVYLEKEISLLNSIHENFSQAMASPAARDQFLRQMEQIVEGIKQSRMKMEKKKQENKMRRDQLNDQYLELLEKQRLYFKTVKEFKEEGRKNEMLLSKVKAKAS
UniProt O60566: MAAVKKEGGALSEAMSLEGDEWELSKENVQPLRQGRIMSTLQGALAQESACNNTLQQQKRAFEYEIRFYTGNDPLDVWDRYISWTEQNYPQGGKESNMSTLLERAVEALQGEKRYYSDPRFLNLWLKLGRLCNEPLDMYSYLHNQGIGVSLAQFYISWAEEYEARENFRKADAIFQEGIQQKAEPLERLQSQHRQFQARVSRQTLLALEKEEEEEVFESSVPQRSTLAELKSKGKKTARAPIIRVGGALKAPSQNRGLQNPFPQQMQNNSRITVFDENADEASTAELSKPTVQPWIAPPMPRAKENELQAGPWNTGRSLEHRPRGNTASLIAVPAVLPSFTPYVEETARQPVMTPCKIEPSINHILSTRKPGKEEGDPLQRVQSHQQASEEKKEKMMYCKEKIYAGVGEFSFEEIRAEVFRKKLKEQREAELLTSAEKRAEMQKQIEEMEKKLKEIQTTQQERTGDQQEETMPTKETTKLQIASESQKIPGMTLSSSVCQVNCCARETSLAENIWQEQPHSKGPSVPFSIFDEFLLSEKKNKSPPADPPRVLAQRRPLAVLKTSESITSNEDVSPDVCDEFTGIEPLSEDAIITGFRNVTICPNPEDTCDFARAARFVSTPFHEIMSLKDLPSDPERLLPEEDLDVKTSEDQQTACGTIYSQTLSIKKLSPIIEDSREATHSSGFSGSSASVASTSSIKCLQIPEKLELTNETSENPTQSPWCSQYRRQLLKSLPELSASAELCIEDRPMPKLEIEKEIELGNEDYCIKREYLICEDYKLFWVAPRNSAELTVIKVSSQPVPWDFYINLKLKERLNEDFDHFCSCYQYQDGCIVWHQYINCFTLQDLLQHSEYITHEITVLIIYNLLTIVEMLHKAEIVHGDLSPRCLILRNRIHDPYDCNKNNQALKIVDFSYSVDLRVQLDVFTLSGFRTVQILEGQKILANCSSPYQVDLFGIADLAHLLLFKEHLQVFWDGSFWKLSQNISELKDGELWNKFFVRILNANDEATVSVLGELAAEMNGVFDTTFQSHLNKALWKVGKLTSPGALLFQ
UniProt Q9UQE7: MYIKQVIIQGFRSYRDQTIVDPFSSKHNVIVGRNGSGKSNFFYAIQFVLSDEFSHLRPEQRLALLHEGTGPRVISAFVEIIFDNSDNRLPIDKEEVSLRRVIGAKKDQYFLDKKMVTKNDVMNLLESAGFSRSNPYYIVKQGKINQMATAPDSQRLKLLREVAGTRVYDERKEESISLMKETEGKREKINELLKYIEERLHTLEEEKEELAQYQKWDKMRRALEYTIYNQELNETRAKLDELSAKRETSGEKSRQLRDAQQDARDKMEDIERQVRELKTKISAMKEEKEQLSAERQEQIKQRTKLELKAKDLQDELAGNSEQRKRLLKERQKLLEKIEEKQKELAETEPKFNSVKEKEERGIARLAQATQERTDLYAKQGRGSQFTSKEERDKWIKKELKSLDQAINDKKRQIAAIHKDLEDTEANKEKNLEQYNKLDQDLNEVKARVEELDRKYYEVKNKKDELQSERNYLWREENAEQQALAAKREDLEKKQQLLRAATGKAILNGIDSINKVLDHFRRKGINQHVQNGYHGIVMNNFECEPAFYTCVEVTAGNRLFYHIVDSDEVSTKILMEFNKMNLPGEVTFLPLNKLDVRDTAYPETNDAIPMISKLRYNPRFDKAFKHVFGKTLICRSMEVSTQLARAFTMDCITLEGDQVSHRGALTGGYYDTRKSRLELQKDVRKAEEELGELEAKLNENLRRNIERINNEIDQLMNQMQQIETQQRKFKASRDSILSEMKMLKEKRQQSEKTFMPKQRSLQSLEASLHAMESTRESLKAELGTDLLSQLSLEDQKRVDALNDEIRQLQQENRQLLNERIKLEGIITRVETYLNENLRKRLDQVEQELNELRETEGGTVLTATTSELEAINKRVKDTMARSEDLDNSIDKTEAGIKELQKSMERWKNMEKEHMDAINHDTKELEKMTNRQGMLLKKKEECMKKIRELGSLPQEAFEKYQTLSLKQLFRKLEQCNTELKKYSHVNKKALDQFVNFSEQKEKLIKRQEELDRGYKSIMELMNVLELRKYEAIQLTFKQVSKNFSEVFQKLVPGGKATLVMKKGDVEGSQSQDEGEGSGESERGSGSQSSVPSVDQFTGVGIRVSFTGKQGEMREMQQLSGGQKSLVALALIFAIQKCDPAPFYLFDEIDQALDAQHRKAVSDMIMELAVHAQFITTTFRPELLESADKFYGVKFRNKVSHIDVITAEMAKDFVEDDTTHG
UniProt O60826: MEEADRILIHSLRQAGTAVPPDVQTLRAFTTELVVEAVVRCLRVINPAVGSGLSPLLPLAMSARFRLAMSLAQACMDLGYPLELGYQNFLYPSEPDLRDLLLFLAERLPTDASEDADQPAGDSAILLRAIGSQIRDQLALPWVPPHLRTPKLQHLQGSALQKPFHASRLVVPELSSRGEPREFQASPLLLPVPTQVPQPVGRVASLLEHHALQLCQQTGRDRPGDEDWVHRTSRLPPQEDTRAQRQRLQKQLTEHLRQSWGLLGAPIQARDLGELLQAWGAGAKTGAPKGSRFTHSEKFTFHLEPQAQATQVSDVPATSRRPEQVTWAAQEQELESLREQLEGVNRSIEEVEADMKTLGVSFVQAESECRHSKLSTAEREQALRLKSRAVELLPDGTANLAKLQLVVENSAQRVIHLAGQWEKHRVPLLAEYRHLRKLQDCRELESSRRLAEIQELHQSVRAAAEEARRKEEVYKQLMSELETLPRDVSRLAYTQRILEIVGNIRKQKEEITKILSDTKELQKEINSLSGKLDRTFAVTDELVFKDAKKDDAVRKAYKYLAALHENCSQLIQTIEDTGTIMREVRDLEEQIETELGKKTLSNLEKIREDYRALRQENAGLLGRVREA
UniProt O43684: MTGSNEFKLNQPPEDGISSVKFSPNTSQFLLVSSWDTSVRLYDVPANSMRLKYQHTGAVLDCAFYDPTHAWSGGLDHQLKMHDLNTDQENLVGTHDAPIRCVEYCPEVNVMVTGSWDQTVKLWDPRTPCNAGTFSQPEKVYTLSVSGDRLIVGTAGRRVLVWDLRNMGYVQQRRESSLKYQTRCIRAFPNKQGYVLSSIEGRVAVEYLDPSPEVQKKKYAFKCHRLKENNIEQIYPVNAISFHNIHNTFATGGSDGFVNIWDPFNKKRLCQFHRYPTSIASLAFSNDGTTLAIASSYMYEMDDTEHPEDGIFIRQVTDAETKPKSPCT
UniProt Q8N3U4: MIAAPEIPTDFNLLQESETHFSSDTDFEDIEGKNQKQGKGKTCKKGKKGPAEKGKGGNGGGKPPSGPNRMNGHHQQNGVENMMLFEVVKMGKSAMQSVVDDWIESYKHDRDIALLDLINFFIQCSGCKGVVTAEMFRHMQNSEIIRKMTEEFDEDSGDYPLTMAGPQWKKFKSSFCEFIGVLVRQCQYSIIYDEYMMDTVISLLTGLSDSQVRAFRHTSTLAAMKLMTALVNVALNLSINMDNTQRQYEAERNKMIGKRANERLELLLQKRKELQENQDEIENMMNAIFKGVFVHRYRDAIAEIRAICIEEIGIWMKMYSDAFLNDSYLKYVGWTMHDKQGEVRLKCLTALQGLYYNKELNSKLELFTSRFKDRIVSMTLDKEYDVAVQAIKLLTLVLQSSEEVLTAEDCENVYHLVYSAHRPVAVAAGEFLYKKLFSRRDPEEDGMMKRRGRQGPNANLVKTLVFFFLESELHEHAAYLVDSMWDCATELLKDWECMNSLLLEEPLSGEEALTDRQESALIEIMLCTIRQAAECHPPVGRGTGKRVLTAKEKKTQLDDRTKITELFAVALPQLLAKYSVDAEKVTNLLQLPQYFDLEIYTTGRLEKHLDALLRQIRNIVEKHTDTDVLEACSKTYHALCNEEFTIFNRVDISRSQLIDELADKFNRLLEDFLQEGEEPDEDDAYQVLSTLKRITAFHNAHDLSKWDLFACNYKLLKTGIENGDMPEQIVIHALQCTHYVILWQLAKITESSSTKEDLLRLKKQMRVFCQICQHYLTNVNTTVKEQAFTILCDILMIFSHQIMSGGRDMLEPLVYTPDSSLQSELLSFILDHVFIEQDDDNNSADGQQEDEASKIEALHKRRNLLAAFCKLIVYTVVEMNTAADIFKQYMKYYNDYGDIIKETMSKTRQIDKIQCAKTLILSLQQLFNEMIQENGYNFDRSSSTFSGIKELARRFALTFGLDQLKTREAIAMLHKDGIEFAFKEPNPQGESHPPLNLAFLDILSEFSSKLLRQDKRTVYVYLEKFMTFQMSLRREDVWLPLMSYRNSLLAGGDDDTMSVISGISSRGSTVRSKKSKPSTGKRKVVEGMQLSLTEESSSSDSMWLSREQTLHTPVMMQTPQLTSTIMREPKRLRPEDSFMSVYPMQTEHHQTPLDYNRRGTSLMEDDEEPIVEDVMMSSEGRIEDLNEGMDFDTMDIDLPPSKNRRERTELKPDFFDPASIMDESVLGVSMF

Read-outs that look alike come from different tables or passages of the source. These are yes or no findings as the source states them, for the method shown. In cells and extracts the contact can be indirect. These calls come from enrichment with a bait or labelling near it, and not all partners need be listed. For part of these data: A no says only that the protein was not detected with the bait. For part of these data: Where a sequence is shown, tags or fusion partners need not be part of it.

The target of assay [1] is CCDC93-GFP (human) (UniProt Q567U6). Description: affinity purification with mass spectrometry; on-chip AP-MS: microfluidic columns of Dynabeads M-270 epoxy coupled to anti-GFP nanobody Lag16-2K/R (24-reactor chip; SMC1A and CCDC93 also on the 48-reactor chip), 4 µg whole-cell extract or 12,000-25,000 cells per pull-down, loaded at 15 °C, washes with 1 M NaCl buffer and PBS, on-bead digestion; control wild-type or not induced cells; label-free quantification.

For the next assay, the target named is LAP-BUBR1 (UniProt O60566). Described as above.
Assay [2] has as its target SMC3 (human (endogenous in HeLa)) (UniProt Q9UQE7). Description: affinity purification with mass spectrometry; on-chip AP-MS on the 48-reactor chip: HeLa Kyoto extract incubated 1 h at 4 °C with anti-SMC3 antibody (Abcam Ab9263), protein A/G beads; control normal rabbit IgG.
The target of assay [3] is T1, SMC1A-GFP (human) (UniProt Q14683).
T1 sequence: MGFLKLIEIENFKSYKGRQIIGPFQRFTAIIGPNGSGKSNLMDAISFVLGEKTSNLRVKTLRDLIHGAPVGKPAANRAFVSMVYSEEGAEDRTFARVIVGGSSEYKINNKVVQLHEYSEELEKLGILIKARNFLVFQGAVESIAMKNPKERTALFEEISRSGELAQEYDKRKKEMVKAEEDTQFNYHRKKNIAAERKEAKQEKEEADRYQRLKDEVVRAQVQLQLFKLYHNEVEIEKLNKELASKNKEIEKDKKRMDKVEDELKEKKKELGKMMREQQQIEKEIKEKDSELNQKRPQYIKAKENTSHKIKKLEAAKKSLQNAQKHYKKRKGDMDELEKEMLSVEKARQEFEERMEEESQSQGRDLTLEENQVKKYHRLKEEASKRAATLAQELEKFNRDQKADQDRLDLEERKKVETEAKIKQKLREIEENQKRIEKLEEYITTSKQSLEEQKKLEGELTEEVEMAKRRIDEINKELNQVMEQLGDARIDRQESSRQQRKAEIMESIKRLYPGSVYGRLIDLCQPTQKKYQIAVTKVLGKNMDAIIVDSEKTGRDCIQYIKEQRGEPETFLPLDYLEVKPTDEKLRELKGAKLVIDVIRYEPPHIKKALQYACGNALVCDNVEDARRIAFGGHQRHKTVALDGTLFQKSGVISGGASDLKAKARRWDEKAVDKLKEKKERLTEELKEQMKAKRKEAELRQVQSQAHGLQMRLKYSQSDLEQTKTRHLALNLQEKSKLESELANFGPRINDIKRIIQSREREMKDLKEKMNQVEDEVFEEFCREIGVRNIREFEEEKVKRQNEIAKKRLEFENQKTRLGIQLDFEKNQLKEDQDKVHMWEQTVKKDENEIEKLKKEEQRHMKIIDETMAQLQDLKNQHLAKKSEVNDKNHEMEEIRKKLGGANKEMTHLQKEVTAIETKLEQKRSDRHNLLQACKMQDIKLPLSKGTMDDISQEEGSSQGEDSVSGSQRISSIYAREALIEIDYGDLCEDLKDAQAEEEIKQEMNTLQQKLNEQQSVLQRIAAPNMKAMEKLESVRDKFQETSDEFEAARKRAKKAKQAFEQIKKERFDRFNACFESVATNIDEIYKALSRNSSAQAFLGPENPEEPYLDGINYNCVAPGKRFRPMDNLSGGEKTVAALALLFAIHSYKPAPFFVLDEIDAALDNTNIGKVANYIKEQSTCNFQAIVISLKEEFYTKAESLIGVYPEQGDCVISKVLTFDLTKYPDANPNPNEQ
The experiment in a line: affinity purification with mass spectrometry; microcentrifuge tube-based GFP pull-down on GFP-Trap_A beads, 500 µg whole-cell extract, incubation 90 min at 4 °C in 300 mM NaCl buffer with ethidium bromide, washes with 1 M NaCl buffer; control wild-type HeLa Kyoto; label-free quantification.

Assay [4] addresses T1, SMC1A-GFP (human). The experiment in a line: affinity purification with mass spectrometry; on-chip AP-MS: microfluidic columns of Dynabeads M-270 epoxy coupled to anti-GFP nanobody Lag16-2K/R (24-reactor chip; SMC1A and CCDC93 also on the 48-reactor chip), 4 µg whole-cell extract or 12,000-25,000 cells per pull-down, loaded at 15 °C, washes with 1 M NaCl buffer and PBS, on-bead digestion; control wild-type or not induced cells; label-free quantification.

In assay [5] the target is T1, SMC1A-GFP (human). The assay is described as above. This is another data set of the same source.
Assay [6] deals with CCDC93-GFP (human) (UniProt Q567U6). The assay is described as above. This is another data set of the same source.

For CCDC22 (from UniProt O60826 1-627), the binding result with CCDC93-GFP (human) [1] is reported as “binds”.

In the case of BUB3 (from UniProt O43684 1-328), in the assay with LAP-BUBR1, the binding result was “binds”. STAG2 (from UniProt Q8N3U4 1-1231): the binding result (in assay [2]; with SMC1A-GFP (human) [3]; with SMC1A-GFP (human) [4]) was “binds” each time.

B1: STAG1 (protein, UniProt Q8WVM7 1-1258)
chain: MITSELPVLQDSTNETTAHSDAGSELEETEVKGKRKRGRPGRPPSTNKKPRKSPGEKSRIEAGIRGAGRGRANGHPQQNGEGEPVTLFEVVKLGKSAMQSVVDDWIESYKQDRDIALLDLINFFIQCSGCRGTVRIEMFRNMQNAEIIRKMTEEFDEDSGDYPLTMPGPQWKKFRSNFCEFIGVLIRQCQYSIIYDEYMMDTVISLLTGLSDSQVRAFRHTSTLAAMKLMTALVNVALNLSIHQDNTQRQYEAERNKMIGKRANERLELLLQKRKELQENQDEIENMMNSIFKGIFVHRYRDAIAEIRAICIEEIGVWMKMYSDAFLNDSYLKYVGWTLHDRQGEVRLKCLKALQSLYTNRELFPKLELFTNRFKDRIVSMTLDKEYDVAVEAIRLVTLILHGSEEALSNEDCENVYHLVYSAHRPVAVAAGEFLHKKLFSRHDPQAEEALAKRRGRNSPNGNLIRMLVLFFLESELHEHAAYLVDSLWESSQELLKDWECMTELLLEEPVQGEEAMSDRQESALIELMVCTIRQAAEAHPPVGRGTGKRVLTAKERKTQIDDRNKLTEHFIITLPMLLSKYSADAEKVANLLQIPQYFDLEIYSTGRMEKHLDALLKQIKFVVEKHVESDVLEACSKTYSILCSEEYTIQNRVDIARSQLIDEFVDRFNHSVEDLLQEGEEADDDDIYNVLSTLKRLTSFHNAHDLTKWDLFGNCYRLLKTGIEHGAMPEQIVVQALQCSHYSILWQLVKITDGSPSKEDLLVLRKTVKSFLAVCQQCLSNVNTPVKEQAFMLLCDLLMIFSHQLMTGGREGLQPLVFNPDTGLQSELLSFVMDHVFIDQDEENQSMEGDEEDEANKIEALHKRRNLLAAFSKLIIYDIVDMHAAADIFKHYMKYYNDYGDIIKETLSKTRQIDKIQCAKTLILSLQQLFNELVQEQGPNLDRTSAHVSGIKELARRFALTFGLDQIKTREAVATLHKDGIEFAFKYQNQKGQEYPPPNLAFLEVLSEFSSKLLRQDKKTVHSYLEKFLTEQMMERREDVWLPLISYRNSLVTGGEDDRMSVNSGSSSSKTSSVRNKKGRPPLHKKRVEDESLDNTWLNRTDTMIQTPGPLPAPQLTSTVLRENSRPMGDQIQEPESEHGSEPDFLHNPQMQISWLGQPKLEDLNRKDRTGMNYMKVRTGVRHAVRGLMEEDAEPIFEDVMMSSRSQLEDMNEEFEDTMVIDLPPSRNRRERAELRPDFFDSAAIIEDDSGFGMPMF
Take B1: the binding result (in assay [2]; with SMC1A-GFP (human) [3]; with SMC1A-GFP (human) [5]) was “binds” in each case.

B2: MYO1E (protein, UniProt Q12965 1-1108)
chain: MGSKGVYQYHWQSHNVKHSGVDDMVLLSKITENSIVENLKKRYMDDYIFTYIGSVLISVNPFKQMPYFGEKEIEMYQGAAQYENPPHIYALADNMYRNMIIDRENQCVIISGESGAGKTVAAKYIMSYISRVSGGGTKVQHVKDIILQSNPLLEAFGNAKTVRNNNSSRFGKYFEIQFSPGGEPDGGKISNFLLEKSRVVMRNPGERSFHIFYQLIEGASAEQKHSLGITSMDYYYYLSLSGSYKVDDIDDRREFQETLHAMNVIGIFAEEQTLVLQIVAGILHLGNISFKEVGNYAAVESEEFLAFPAYLLGINQDRLKEKLTSRQMDSKWGGKSESIHVTLNVEQACYTRDALAKALHARVFDFLVDSINKAMEKDHEEYNIGVLDIYGFEIFQKNGFEQFCINFVNEKLQQIFIELTLKAEQEEYVQEGIRWTPIEYFNNKIVCDLIENKVNPPGIMSILDDVCATMHAVGEGADQTLLQKLQMQIGSHEHFNSWNQGFIIHHYAGKVSYDMDGFCERNRDVLFMDLIELMQSSELPFIKSLFPENLQADKKGRPTTAGSKIKKQANDLVSTLMKCTPHYIRCIKPNETKKPRDWEESRVKHQVEYLGLKENIRVRRAGYAYRRIFQKFLQRYAILTKATWPSWQGEEKQGVLHLLQSVNMDSDQFQLGRSKVFIKAPESLFLLEEMRERKYDGYARVIQKSWRKFVARKKYVQMREEASDLLLNKKERRRNSINRNFIGDYIGMEEHPELQQFVGKREKIDFADTVTKYDRRFKGVKRDLLLTPKCLYLIGREKVKQGPDKGLVKEVLKRKIEIERILSVSLSTMQDDIFILHEQEYDSLLESVFKTEFLSLLAKRYEEKTQKQLPLKFSNTLELKLKKENWGPWSAGGSRQVQFHQGFGDLAVLKPSNKVLQVSIGPGLPKNSRPTRRNTTQNTGYSSGTQNANYPVRAAPPPPGYHQNGVIRNQYVPYPHAPGSQRSNQKSLYTSMARPPLPRQQSTSSDRVSQTPESLDFLKVPDQGAAGVRRQTTSRPPPAGGRPKPQPKPKPQVPQCKALYAYDAQDTDELSFNANDIIDIIKEDPSGWWTGRLRGKQGLFPNNYVTKI
As for B2, in the assay with CCDC93-GFP (human) [6], the binding entry was “no binding”.
